# Measured values from the supplement of paper PMC8728848.
# Some of the results follow.
# B1: CRT-1 (Homo sapiens), P27797 (protein)
# chain: MLLSVPLLLGLLGLAVAEPAVYFKEQFLDGDGWTSRWIESKHKSDFGKFVLSSGKFYGDEEKDKGLQTSQDARFYALSASFEPFSNKGQTLVVQFTVKHEQNIDCGGGYVKLFPNSLDQTDMHGDSEYNIMFGPDICGPGTKKVHVIFNYKGKNVLINKDIRCKDDEFTHLYTLIVRPDNTYEVKIDNSQVESGSLEDDWDFLPPKKIKDPDASKPEDWDERAKIDDPTDSKPEDWDKPEHIPDPDAKKPEDWDEEMDGEWEPPVIQNPEYKGEWKPRQIDNPDYKGTWIHPEIDNPEYSPDPSIYAYDNFGVLGLDLWQVKSGTIFDNFLITNDEAYAEEFGNETWGVTKAAEKQMKDKQDEEQRLKEEEEDKKRKEEEEAEDKEDDEDKDEDEEDEEDKEEDEEEDVPGQAKDEL
# What was measured:
# Experiment in all cases: glycan array binding signal (z-score within array); higher = stronger binding
# Conditions in all cases: glycan notation: IUPAC condensed, linker removed
# [1] = molecular target: Fuc(a1-2)[GalNAc(a1-3)]Gal(b1-3)GalNAc(a1-3)[Fuc(a1-2)]Gal(b1-4)GlcNAc
# Procedure, shortened: (§1)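 The binding signal is a Z-score computed within each array and averaged over linkers. Arrays of the same protein sequence at different concentrations or buffers were also averaged together. Data originate from 3228 arrays in the Consortium for Functional Glycomics database, kept only where the protein sequence was available.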
# [2] = molecular target: Fuc(a1-2)[GalNAc(a1-3)]Gal(b1-3)GalNAc(b1-3)Gal(a1-4)Gal(b1-4)Glc
# Procedure, shortened: as §1
# [3] = molecular target: Fuc(a1-2)[GalNAc(a1-3)]Gal(b1-3)GlcNAc
# Procedure, shortened: as §1
# [4] = molecular target: Fuc(a1-2)[GalNAc(a1-3)]Gal(b1-3)GlcNAc(b1-2)Man(a1-3)[Fuc(a1-2)[GalNAc(a1-3)]Gal(b1-3)GlcNAc(b1-2)Man(a1-6)]Man(b1-4)GlcNAc(b1-4)GlcNAc
# Procedure, shortened: as §1
# [5] = molecular target: Fuc(a1-2)[GalNAc(a1-3)]Gal(b1-3)GlcNAc(b1-2)Man(a1-3)[Fuc(a1-2)[GalNAc(a1-3)]Gal(b1-3)GlcNAc(b1-2)Man(a1-6)]Man(b1-4)GlcNAc(b1-4)[Fuc(a1-6)]GlcNAc
# Procedure, shortened: as §1
# [6] = molecular target: Fuc(a1-2)[GalNAc(a1-3)]Gal(b1-3)GlcNAc(b1-3)GalNAc
# Procedure, shortened: as §1
# [7] = molecular target: Fuc(a1-2)[GalNAc(a1-3)]Gal(b1-3)GlcNAc(b1-6)GalNAc
# Procedure, shortened: as §1
# [8] = molecular target: Fuc(a1-2)[GalNAc(a1-3)]Gal(b1-4)Glc
# Procedure, shortened: as §1
# [9] = molecular target: Fuc(a1-2)[GalNAc(a1-3)]Gal(b1-4)GlcNAc
# Procedure, shortened: as §1
# [10] = molecular target: Fuc(a1-2)[GalNAc(a1-3)]Gal(b1-4)GlcNAc(b1-2)Man
# Procedure, shortened: as §1
# [11] = molecular target: Fuc(a1-2)[GalNAc(a1-3)]Gal(b1-4)GlcNAc(b1-2)Man(a1-3)[Fuc(a1-2)[GalNAc(a1-3)]Gal(b1-4)GlcNAc(b1-2)Man(a1-6)]Man(b1-4)GlcNAc(b1-4)GlcNAc
# Procedure, shortened: as §1
# [12] = molecular target: Fuc(a1-2)[GalNAc(a1-3)]Gal(b1-4)GlcNAc(b1-2)Man(a1-3)[Fuc(a1-2)[GalNAc(a1-3)]Gal(b1-4)GlcNAc(b1-2)Man(a1-6)]Man(b1-4)GlcNAc(b1-4)[Fuc(a1-6)]GlcNAc
# Procedure, shortened: as §1
# [13] = molecular target: Fuc(a1-2)[GalNAc(a1-3)]Gal(b1-4)GlcNAc(b1-3)Gal(b1-4)GlcNAc
# Procedure, shortened: as §1
# [14] = molecular target: Fuc(a1-2)[GalNAc(a1-3)]Gal(b1-4)GlcNAc(b1-3)Gal(b1-4)GlcNAc(b1-3)Gal(b1-4)GlcNAc
# Procedure, shortened: as §1
# [15] = molecular target: Fuc(a1-2)[GalNAc(a1-3)]Gal(b1-4)GlcNAc(b1-3)GalNAc
# Procedure, shortened: as §1
# [16] = molecular target: Fuc(a1-2)[GalNAc(a1-3)]Gal(b1-4)GlcNAc(b1-3)[Fuc(a1-2)[GalNAc(a1-3)]Gal(b1-4)GlcNAc(b1-6)]GalNAc
# Procedure, shortened: as §1
# [17] = molecular target: Fuc(a1-2)[GalNAc(a1-3)]Gal(b1-4)GlcNAc(b1-6)GalNAc
# Procedure, shortened: as §1
# [18] = molecular target: Fuc(a1-2)[GalNAc(a1-3)]Gal(b1-4)[Fuc(a1-3)]GlcNAc
# Procedure, shortened: as §1
# [19] = molecular target: Fuc(a1-2)[GalNAc(a1-3)]Gal(b1-4)[Fuc(a1-3)]GlcNAc(b1-3)GalNAc
# Procedure, shortened: as §1
# [20] = molecular target: Fuc(a1-2)[GalNAc(a1-4)]Gal(b1-4)GlcNAc
# Procedure, shortened: as §1
# [21] = molecular target: Fuc(a1-2)[GalNAc(b1-3)]Gal
# Procedure, shortened: as §1
# Fuc(a1-3)GlcNAc = molecular target: Fuc(a1-3)GlcNAc
# Procedure, shortened: as §1
# [22] = molecular target: Fuc(a1-3)[Gal(b1-4)]Glc6S
# Procedure, shortened: as §1
# [23] = molecular target: Fuc(a1-3)[Gal(b1-4)]GlcNAc
# Procedure, shortened: as §1
# [24] = molecular target: Fuc(a1-3)[Gal(b1-4)]GlcNAc(b1-2)Man
# Procedure, shortened: as §1
# [25] = molecular target: Fuc(a1-3)[Gal(b1-4)]GlcNAc(b1-2)Man(a1-3)[Fuc(a1-3)[Gal(b1-4)]GlcNAc(b1-2)Man(a1-6)]Man(b1-4)GlcNAc(b1-4)GlcNAc
# Procedure, shortened: as §1
# [26] = molecular target: Fuc(a1-3)[Gal(b1-4)]GlcNAc(b1-2)Man(a1-3)[Fuc(a1-3)[Gal(b1-4)]GlcNAc(b1-2)Man(a1-6)]Man(b1-4)GlcNAc(b1-4)[Fuc(a1-6)]GlcNAc
# Procedure, shortened: as §1
# [27] = molecular target: Fuc(a1-3)[Gal(b1-4)]GlcNAc(b1-3)Gal(b1-3)[Fuc(a1-4)]GlcNAc
# Procedure, shortened: as §1
# [28] = molecular target: Fuc(a1-3)[Gal(b1-4)]GlcNAc(b1-3)Gal(b1-4)[Fuc(a1-3)]GlcNAc
# Procedure, shortened: as §1
# [29] = molecular target: Fuc(a1-3)[Gal(b1-4)]GlcNAc(b1-3)Gal(b1-4)[Fuc(a1-3)]GlcNAc(b1-3)Gal(b1-4)[Fuc(a1-3)]GlcNAc
# Procedure, shortened: as §1
# [30] = molecular target: Fuc(a1-3)[Gal(b1-4)]GlcNAc(b1-3)GalNAc
# Procedure, shortened: as §1
# [31] = molecular target: Fuc(a1-3)[Gal(b1-4)]GlcNAc(b1-4)Gal(b1-4)[Fuc(a1-3)]GlcNAc
# Procedure, shortened: as §1
# [32] = molecular target: Fuc(a1-3)[Gal(b1-4)]GlcNAc(b1-4)Gal(b1-4)[Fuc(a1-3)]GlcNAc(b1-4)Gal(b1-4)[Fuc(a1-3)]GlcNAc
# Procedure, shortened: as §1
# [33] = molecular target: Fuc(a1-3)[Gal(b1-4)]GlcNAc(b1-6)GalNAc
# Procedure, shortened: as §1
# [34] = molecular target: Fuc(a1-3)[Gal(b1-4)]GlcNAc(b1-6)[Gal(b1-3)GlcNAc(b1-3)]Gal(b1-4)Glc
# Procedure, shortened: as §1
# [35] = molecular target: Fuc(a1-3)[Gal(b1-4)]GlcNAc6S
# Procedure, shortened: as §1
# [36] = molecular target: Fuc(a1-3)[Gal3S(b1-4)]Glc
# Procedure, shortened: as §1
binder,measurement,setting,value
B1,glycan array binding signal (z-score),[1],-0.377
same,glycan array binding signal (z-score),[2],-0.548
same,glycan array binding signal (z-score),[3],-0.397
same,glycan array binding signal (z-score),[4],-0.107
same,glycan array binding signal (z-score),[5],-0.531
same,glycan array binding signal (z-score),[6],0.68
same,glycan array binding signal (z-score),[7],-0.976
same,glycan array binding signal (z-score),[8],-0.329
same,glycan array binding signal (z-score),[9],-0.467
same,glycan array binding signal (z-score),[10],-0.607
same,glycan array binding signal (z-score),[11],0.117
same,glycan array binding signal (z-score),[12],0.045
same,glycan array binding signal (z-score),[13],-0.116
same,glycan array binding signal (z-score),[14],0.218
same,glycan array binding signal (z-score),[15],-0.974
same,glycan array binding signal (z-score),[16],-0.475
same,glycan array binding signal (z-score),[17],-0.672
same,glycan array binding signal (z-score),[18],-0.26
same,glycan array binding signal (z-score),[19],-0.047
same,glycan array binding signal (z-score),[20],0.261
same,glycan array binding signal (z-score),[21],-0.274
same,glycan array binding signal (z-score),Fuc(a1-3)GlcNAc,2.63
same,glycan array binding signal (z-score),[22],0.367
same,glycan array binding signal (z-score),[23],-0.29
same,glycan array binding signal (z-score),[24],0.323
same,glycan array binding signal (z-score),[25],0.284
same,glycan array binding signal (z-score),[26],0.357
same,glycan array binding signal (z-score),[27],-0.184
same,glycan array binding signal (z-score),[28],-0.525
same,glycan array binding signal (z-score),[29],0.483
same,glycan array binding signal (z-score),[30],0.608
same,glycan array binding signal (z-score),[31],1.42
same,glycan array binding signal (z-score),[32],0.02
same,glycan array binding signal (z-score),[33],0.585
same,glycan array binding signal (z-score),[34],1.08
same,glycan array binding signal (z-score),[35],0.854
same,glycan array binding signal (z-score),[36],-0.265

# Fetched one by one from above:
binder,measurement,setting,value
B1,glycan array binding signal (z-score),[14],0.218
same,glycan array binding signal (z-score),[12],0.045
